From article PMC7910457
Results are given in words; binding and its absence hold for the method and conditions named. In cells and extracts the contact can be indirect. Here binding means that the protein was enriched with, or labelled near, the bait; the list need not be complete. Tags and fused reporters may be left off the sequences shown.

By UniProt entry, the sequences of proteins in these tests, tags left out.
UniProt O43581: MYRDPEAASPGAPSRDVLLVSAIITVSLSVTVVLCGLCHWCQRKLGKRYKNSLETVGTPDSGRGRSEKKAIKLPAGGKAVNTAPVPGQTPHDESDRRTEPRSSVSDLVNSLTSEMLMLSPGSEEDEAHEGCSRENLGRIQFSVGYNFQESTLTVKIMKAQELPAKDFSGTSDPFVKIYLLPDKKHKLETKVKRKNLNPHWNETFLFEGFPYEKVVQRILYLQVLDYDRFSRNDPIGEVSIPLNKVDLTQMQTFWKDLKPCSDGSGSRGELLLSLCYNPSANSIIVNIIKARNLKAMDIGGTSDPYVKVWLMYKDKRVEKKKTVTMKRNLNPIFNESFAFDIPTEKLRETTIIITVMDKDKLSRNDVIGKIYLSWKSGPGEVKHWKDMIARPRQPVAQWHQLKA

Biological target: T1, Esyt1-GFP (UniProt Q9BSJ8)
T1 sequence: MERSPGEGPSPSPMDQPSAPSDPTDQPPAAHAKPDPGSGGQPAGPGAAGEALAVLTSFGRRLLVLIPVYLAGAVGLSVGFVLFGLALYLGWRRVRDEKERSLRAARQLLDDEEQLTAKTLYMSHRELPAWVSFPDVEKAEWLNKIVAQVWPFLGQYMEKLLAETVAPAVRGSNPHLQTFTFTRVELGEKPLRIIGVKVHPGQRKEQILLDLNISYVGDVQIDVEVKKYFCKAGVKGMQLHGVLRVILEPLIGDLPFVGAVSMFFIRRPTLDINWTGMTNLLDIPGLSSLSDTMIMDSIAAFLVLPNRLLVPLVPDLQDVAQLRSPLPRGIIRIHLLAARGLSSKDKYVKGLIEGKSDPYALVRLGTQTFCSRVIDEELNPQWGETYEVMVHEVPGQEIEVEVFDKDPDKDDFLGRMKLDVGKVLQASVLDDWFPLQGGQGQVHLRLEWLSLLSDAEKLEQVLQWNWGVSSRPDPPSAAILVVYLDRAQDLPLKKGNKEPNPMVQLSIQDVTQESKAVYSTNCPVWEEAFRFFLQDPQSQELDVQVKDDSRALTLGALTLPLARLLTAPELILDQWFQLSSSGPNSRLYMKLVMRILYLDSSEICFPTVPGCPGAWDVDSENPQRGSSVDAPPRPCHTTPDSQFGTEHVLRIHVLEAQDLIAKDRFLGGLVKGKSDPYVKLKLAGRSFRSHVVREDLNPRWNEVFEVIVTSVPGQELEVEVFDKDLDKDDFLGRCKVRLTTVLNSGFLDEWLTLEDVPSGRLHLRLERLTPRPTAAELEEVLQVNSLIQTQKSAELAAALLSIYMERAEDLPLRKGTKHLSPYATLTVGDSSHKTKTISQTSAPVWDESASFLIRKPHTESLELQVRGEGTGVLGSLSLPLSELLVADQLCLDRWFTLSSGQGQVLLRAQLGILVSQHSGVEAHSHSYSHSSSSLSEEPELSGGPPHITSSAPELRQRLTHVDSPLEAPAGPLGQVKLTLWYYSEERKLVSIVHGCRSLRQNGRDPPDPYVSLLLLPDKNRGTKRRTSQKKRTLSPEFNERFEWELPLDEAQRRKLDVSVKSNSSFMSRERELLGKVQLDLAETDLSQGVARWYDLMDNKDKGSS
Test: affinity purification with mass spectrometry; 786 O/OE-SR cells transfected with Esyt1-GFP; precipitated with anti-GFP antibody (TaKaRa Co-IP kit); SDS-PAGE, in-gel trypsin digest, Orbitrap Q Exactive HF-X

binding: binds
Substance: Synaptotagmin7 (Syt7) (from UniProt O43581 1-403)
